Measurements reported in the supplement of paper PMC6411743.
± gives the standard deviation of the averaged measurements. This is a selection; strong and weak results do not stand in their true shares. Most values lie at the level of the controls, where differences are scatter.

Chains of the proteins cited; added tags and fusions are not shown. Lines headed by an entry give the natural chain unless they say otherwise; changes in a name come on top.
UniProt Q86XP1: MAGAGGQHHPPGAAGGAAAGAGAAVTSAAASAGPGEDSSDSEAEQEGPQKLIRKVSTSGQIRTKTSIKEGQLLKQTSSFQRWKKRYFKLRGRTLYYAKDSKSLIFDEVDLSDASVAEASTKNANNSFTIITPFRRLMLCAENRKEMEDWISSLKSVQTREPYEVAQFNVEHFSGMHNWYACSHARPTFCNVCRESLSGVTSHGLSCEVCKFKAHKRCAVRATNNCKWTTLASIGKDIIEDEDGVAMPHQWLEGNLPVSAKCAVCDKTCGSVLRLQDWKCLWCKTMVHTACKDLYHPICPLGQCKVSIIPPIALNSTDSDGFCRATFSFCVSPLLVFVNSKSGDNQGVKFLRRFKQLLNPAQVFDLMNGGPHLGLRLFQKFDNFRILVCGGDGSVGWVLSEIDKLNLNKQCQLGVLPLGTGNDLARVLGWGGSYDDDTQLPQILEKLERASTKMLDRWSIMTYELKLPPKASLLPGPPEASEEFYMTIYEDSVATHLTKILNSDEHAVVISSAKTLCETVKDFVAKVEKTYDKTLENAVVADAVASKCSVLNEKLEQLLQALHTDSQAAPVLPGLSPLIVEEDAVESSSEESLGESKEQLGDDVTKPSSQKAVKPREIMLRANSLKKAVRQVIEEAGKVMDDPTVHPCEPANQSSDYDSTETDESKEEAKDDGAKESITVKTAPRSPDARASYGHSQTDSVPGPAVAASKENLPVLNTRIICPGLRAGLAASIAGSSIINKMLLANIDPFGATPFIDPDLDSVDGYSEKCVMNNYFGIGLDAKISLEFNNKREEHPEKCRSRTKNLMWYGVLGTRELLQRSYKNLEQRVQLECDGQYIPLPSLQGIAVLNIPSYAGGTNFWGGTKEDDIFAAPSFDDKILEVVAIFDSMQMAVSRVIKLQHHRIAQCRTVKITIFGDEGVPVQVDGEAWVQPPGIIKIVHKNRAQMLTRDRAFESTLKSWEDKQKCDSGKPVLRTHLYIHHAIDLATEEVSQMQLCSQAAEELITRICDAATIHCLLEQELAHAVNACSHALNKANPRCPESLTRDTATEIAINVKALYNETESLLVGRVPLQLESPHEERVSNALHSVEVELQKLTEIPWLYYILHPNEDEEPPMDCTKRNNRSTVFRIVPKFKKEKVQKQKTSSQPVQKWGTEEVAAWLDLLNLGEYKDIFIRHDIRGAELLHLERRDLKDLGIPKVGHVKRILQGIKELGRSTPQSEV
UniProt P57737: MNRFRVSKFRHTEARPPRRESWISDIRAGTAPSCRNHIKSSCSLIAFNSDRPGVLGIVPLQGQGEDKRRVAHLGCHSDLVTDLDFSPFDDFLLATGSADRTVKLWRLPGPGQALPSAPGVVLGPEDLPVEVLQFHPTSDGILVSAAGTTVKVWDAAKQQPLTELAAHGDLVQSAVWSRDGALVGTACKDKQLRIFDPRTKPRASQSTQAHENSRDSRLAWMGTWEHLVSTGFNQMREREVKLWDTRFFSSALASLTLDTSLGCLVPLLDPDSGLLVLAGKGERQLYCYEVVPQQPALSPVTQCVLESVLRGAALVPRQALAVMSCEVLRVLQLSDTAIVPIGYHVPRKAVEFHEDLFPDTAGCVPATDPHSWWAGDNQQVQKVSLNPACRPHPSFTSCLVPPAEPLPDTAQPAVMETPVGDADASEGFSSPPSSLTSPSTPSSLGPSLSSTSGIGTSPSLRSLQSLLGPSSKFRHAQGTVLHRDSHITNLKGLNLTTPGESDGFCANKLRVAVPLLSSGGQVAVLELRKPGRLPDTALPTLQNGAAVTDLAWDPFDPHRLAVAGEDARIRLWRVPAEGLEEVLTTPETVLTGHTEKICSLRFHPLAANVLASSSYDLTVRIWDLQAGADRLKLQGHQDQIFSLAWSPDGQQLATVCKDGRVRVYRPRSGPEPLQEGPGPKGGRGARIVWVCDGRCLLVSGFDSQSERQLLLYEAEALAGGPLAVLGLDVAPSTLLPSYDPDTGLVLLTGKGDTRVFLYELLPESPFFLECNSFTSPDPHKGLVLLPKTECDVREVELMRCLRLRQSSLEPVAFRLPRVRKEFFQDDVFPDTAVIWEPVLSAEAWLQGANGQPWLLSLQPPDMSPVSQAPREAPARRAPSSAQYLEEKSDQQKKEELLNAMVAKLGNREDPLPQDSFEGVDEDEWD
UniProt P48200: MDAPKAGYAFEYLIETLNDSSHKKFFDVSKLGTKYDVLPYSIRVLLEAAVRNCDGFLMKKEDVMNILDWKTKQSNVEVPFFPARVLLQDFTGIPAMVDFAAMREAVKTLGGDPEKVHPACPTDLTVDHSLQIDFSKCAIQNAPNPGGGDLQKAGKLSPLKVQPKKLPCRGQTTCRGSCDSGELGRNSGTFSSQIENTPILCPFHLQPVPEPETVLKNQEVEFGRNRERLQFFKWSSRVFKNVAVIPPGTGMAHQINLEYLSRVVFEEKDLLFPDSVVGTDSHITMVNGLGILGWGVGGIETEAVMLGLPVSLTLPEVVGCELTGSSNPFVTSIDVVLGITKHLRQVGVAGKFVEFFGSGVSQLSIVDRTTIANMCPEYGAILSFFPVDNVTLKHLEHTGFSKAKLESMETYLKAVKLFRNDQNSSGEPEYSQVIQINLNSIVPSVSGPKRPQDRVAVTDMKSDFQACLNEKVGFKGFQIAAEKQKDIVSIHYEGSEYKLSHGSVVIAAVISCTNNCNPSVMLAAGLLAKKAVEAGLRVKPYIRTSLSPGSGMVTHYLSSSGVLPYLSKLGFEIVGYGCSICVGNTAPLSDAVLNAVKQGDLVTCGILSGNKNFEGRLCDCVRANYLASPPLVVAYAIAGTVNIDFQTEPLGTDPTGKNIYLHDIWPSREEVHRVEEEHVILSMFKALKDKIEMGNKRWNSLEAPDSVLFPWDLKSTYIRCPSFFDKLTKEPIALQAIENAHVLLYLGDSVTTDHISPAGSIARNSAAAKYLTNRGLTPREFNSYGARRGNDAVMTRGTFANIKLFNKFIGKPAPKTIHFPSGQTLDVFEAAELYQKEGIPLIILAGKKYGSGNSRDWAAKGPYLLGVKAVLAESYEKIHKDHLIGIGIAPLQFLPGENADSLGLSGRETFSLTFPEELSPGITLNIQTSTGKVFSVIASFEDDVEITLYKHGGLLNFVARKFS
UniProt A8CG34, whole entry, looked up: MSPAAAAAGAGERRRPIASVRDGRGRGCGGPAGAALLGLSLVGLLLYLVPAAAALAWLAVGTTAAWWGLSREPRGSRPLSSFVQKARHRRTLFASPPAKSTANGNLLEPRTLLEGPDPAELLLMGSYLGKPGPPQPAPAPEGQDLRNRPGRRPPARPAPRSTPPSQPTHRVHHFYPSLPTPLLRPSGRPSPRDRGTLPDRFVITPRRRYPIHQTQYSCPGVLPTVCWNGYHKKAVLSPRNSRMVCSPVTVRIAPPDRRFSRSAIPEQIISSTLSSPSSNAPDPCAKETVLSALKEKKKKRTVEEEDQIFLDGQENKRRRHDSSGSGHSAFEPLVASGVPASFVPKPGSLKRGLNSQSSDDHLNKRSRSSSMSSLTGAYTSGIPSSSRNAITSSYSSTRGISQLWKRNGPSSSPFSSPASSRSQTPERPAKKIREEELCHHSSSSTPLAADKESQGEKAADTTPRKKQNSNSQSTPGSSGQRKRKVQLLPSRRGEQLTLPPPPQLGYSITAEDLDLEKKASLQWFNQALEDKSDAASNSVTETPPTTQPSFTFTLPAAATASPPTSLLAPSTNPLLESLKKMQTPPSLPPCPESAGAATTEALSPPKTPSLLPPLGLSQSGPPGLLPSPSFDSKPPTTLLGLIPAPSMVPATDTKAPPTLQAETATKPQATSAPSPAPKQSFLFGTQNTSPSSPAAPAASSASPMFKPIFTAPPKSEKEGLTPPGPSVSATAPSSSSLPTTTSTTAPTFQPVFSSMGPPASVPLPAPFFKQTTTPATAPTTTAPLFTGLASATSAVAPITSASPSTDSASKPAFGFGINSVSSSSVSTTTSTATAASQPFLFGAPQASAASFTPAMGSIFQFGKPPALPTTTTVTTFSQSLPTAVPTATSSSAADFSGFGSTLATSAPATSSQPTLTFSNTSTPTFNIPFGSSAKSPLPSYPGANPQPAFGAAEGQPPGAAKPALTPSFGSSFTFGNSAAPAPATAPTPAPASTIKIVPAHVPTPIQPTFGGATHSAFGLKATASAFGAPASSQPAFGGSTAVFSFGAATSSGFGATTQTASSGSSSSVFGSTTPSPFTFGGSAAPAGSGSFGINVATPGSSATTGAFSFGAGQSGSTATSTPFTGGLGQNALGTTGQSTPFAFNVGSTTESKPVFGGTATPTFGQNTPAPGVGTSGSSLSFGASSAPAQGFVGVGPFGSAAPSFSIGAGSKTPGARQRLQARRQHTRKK
UniProt Q9BUJ2: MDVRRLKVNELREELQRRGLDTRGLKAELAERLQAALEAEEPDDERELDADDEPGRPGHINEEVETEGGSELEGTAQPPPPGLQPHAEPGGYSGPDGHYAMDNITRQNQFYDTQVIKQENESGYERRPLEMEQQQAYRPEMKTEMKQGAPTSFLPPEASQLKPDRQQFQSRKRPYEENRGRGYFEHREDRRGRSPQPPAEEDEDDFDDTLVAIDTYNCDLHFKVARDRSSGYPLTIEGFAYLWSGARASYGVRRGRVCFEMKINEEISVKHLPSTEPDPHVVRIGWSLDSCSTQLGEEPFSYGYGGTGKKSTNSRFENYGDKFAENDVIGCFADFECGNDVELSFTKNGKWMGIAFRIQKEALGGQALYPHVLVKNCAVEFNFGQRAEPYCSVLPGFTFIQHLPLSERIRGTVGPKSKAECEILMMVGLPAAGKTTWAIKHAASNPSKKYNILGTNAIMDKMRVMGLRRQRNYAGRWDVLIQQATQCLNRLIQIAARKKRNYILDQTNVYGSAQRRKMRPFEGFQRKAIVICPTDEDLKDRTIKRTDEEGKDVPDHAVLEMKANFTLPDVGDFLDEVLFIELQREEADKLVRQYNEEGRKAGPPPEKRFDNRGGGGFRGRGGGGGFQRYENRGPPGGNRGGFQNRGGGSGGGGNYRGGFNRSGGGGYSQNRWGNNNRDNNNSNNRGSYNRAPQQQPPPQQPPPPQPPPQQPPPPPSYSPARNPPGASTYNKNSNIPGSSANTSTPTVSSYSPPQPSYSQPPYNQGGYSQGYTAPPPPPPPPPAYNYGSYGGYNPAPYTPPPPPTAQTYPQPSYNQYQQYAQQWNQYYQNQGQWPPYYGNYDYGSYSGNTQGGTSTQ
UniProt Q9C0C7: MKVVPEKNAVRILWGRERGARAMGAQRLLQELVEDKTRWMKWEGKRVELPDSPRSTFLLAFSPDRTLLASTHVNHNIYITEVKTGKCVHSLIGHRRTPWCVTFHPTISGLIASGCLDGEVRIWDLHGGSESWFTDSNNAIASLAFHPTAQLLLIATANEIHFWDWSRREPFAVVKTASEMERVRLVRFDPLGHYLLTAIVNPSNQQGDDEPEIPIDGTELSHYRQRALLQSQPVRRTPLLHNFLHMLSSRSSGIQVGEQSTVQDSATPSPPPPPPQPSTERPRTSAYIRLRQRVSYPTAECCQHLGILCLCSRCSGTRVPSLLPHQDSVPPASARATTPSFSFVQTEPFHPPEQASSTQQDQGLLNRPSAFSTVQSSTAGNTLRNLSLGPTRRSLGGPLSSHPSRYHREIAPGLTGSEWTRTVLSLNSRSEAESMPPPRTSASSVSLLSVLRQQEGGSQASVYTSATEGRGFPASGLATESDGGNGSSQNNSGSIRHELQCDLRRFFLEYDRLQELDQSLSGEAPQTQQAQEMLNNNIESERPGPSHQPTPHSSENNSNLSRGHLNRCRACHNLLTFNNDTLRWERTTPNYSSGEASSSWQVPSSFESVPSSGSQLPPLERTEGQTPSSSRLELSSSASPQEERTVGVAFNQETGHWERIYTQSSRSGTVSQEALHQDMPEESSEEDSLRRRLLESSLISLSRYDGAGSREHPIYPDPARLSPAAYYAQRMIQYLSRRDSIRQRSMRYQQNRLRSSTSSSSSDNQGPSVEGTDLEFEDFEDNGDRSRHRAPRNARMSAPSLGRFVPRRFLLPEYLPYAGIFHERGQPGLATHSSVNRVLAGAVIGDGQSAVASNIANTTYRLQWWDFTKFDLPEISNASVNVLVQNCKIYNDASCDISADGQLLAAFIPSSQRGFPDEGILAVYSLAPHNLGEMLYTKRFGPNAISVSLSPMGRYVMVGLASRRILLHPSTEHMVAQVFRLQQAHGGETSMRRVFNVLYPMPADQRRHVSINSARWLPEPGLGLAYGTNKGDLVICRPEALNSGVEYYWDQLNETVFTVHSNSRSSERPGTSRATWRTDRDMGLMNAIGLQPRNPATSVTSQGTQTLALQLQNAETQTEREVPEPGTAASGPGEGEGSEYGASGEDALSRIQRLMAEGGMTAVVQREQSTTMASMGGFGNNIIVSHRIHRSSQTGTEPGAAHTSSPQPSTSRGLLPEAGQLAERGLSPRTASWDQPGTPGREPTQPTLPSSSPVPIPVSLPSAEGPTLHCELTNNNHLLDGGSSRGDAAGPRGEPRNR

Compound: Nc1ncnc2c1ncn2[C@@H]1O[C@H](COP(=O)(O)OP(=O)(O)OP(=O)(O)O)[C@@H](O)[C@H]1O [adenosine triphosphate]
Assay: NP40-soluble protein abundance relative to vehicle (solubility fold change) (ratio); higher = more soluble protein in presence of ATP
Method in brief: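 Jurkat crude lysate (Dounce-homogenised) was treated with eight concentrations from 0.1 to 10 mM for 10 min at room temperature, then 3 min at 37 °C. It was solubilised with 0.8% NP40 and benzonase (60 min, 4 °C) and ultracentrifuged, and the supernatant was TMT-labelled for LC-MS/MS. Intensities were vsn-normalised, and the value is the fold change against the NP40-processed vehicle per replicate, from three independent experiments.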

Target	NP40-soluble protein abundance (concentration: 0.1mM)	NP40-soluble protein abundance (concentration: 0.5mM)
A0A0A0MRJ6|C9J0F2 and related entries (UniProt P22061)	0.988 ± 0.04	0.97 ± 0.028
A0A087WVB5|Q75MD7 and related entries (UniProt Q8WXX7)	0.888 ± 0.048	0.903 ± 0.03
A0A087WUK2|O14979-3 (UniProt O14979)	0.997 ± 0.034	1.03 ± 0.049
A0A087WU02|F8VPA6 and related entries (UniProt Q96RQ1)	1.01 ± 0.11	0.971 ± 0.041
A0A0C4DFN1|Q8IWA4 (UniProt Q8IWA4)	1.04 ± 0.033	1.04 ± 0.065
A0A0A0MQX8|C9JP00 and related entries (UniProt Q9NR56)	1 ± 0.055	1.02 ± 0.032
A0A0A0MRY0|Q8WUA7 and related entries (UniProt Q8WUA7)	1.09 ± 0.1	1.07 ± 0.082
A0A087X2I1|P62333 (UniProt P62333)	0.995 ± 0.063	0.92 ± 0.022
A0A0C4DGB1|Q9UNQ2 (UniProt Q9UNQ2)	1.06 ± 0.078	1.13 ± 0.068
A0A087WWH3|Q9NZM4 and related entries (UniProt Q9NZM4)	0.989 ± 0.15	1.02 ± 0.14
A0A0C4DGQ8|Q6IAN0 (UniProt Q6IAN0)	1.03 ± 0.1	0.974 ± 0.021
A0A087WXR7|Q5TBB1 (UniProt Q5TBB1)	0.981 ± 0.068	0.972 ± 0.046
A0A087X256|Q2M389 (UniProt Q2M389)	1.08 ± 0.11	1.07 ± 0.06
A0A087WUD1 (UniProt Q6DD87)	1.039 ± 0.0046	1.02 ± 0.022
A0A087WXI0 (UniProt Q7Z6P3)	0.978 ± 0.03	0.971 ± 0.05
A0A087WV81|I3L295 and related entries (UniProt Q9H3L2+O75352+Q1HDL3+J3QS48+I3L1D2+J3QW43+J3QRD5+J3KT75+I3L295)	0.983 ± 0.062	0.949 ± 0.031
A0A0A0MSK5|Q5JTV8 and related entries (UniProt Q5JTV8)	0.968 ± 0.031	0.966 ± 0.015
A0A087WTV6|Q96C36 (UniProt Q96C36)	0.961 ± 0.019	0.967 ± 0.034
A0A087X1S6|B5MDU3 and related entries (UniProt Q96JA3)	1.06 ± 0.18	1.02 ± 0.17
A0A0B4J294|H3BP13 and related entries (UniProt Q9UL33)	0.9608 ± 0.0047	0.98 ± 0.022
A0A087WWM4|F8WAN9 and related entries (UniProt Q9P2T1)	1.01 ± 0.07	1.01 ± 0.052
A0A0D9SG07|Q9H4G0-4 (UniProt Q9H4G0)	0.999 ± 0.068	0.957 ± 0.044
A0A0C4DGH3|Q9Y6R0 (UniProt Q9Y6R0)	1.01 ± 0.032	1.26 ± 0.018

Target	NP40-soluble protein abundance (concentration: 0.1mM)	NP40-soluble protein abundance (concentration: 0.5mM)
A0A0A0MTD9|A0A0A0MTE6|A0A0B4J1S7|E9PMT0 and related entries (UniProt Q9Y2R2)	1.01 ± 0.043	1.07 ± 0.054
A0A087WZ30|A0A087X072|O94761 (UniProt O94761)	1.02 ± 0.078	0.929 ± 0.23
A0A087WU73|A0A087X287|B0QY83 and related entries (UniProt Q969V6)	1 ± 0.14	0.904 ± 0.15
A0A087WW77|Q15334 (UniProt Q15334)	1.06 ± 0.025	1.04 ± 0.04
A0A0A0MT23 (UniProt P27448)	1.07 ± 0.038	1.21 ± 0.016
A0A087WXD1|Q96T83 (UniProt Q96T83)	1.03 ± 0.037	0.934 ± 0.089
A0A0D9SFR6|Q86XP1 and related entries (UniProt Q86XP1)	1.02 ± 0.1	1.06 ± 0.087
A0A0A0MRZ4|E7EMV7 and related entries (UniProt Q15025)	0.943 ± 0.098	0.94 ± 0.045
A0A0A6YYL4|P57737-3|P57737-4 (UniProt P57737)	1 ± 0.022	0.989 ± 0.016
A0A0A0MSJ9|Q15283 and related entries (UniProt Q15283)	1.06 ± 0.11	1.05 ± 0.09
A0A0C4DGS1|P39656 (UniProt P39656)	1.04 ± 0.078	1.02 ± 0.034
A0A087WTW5|Q9UKL3 (UniProt Q9UKL3)	0.98 ± 0.075	1.01 ± 0.095
A0A087X011|E9PES4 and related entries (UniProt Q9Y496)	1.04 ± 0.027	1.04 ± 0.018
A0A0A0MSG2|J3KNW4 and related entries (UniProt Q14192)	1.07 ± 0.056	1.07 ± 0.04
A0A0A0MTG1|Q5ST30 and related entries (UniProt Q5ST30)	1.02 ± 0.022	1.03 ± 0.033
A0A087X1N3|O75818 and related entries (UniProt O75818)	1.06 ± 0.068	1.09 ± 0.039
A0A0A0MT33|Q9UPN6 (UniProt Q9UPN6)	1.02 ± 0.046	1.07 ± 0.081
A0A087WXI1|Q6NVY1 (UniProt Q6NVY1)	1.05 ± 0.058	1.05 ± 0.09
A0A0A6YY96|P48200 (UniProt P48200)	1.03 ± 0.093	1.04 ± 0.046
A0A0C4DG40|Q8NF91 and related entries (UniProt Q8NF91)	0.971 ± 0.03	1 ± 0.027
A0A0A0MTN0|Q13617 and related entries (UniProt Q13617)	1.05 ± 0.09	1.02 ± 0.036
A0A087WW14|Q0VDG4 and related entries (UniProt Q0VDG4)	1.1 ± 0.19	1.06 ± 0.14
A0A087WUK6|A0A087WZT0|M0QZ22 and related entries (UniProt Q5PRF9)	0.953 ± 0.058	1.03 ± 0.044

Record cards, as listed above. Values in the order: NP40-soluble protein abundance (concentration: 0.1mM)	NP40-soluble protein abundance (concentration: 0.5mM)
A0A0A6YY96|P48200 (UniProt P48200) in the list: 1.03 ± 0.093	1.04 ± 0.046
A0A0A0MRZ4|E7EMV7 and related entries (UniProt Q15025) in the list: 0.943 ± 0.098	0.94 ± 0.045
A0A0D9SFR6|Q86XP1 and related entries (UniProt Q86XP1) in the list: 1.02 ± 0.1	1.06 ± 0.087

Following part.

Target	NP40-soluble protein abundance (concentration: 0.1mM)	NP40-soluble protein abundance (concentration: 0.5mM)
A0A0A0MQW0|A0A0A0MR39 (UniProt Q9P2K5)	1.02 ± 0.028	1.03 ± 0.035
A0A0B4J2A0|Q9UHJ6 (UniProt Q9UHJ6)	0.974 ± 0.061	0.989 ± 0.07
A0A087X0R6|Q9UMY4 and related entries (UniProt Q9UMY4)	0.962 ± 0.061	0.954 ± 0.063
A0A0A0MT83|P26440 (UniProt P26440)	1.06 ± 0.095	1.04 ± 0.053
A0A0A0MSI2|B3KPJ4 and related entries (UniProt Q8IXK0)	0.937 ± 0.081	0.99 ± 0.081
A0A0D9SEI0|Q9P0P8 (UniProt Q9P0P8)	0.977 ± 0.074	0.91 ± 0.14
A0A0C4DFT8|G3XAA4 and related entries (UniProt Q9NQC1)	1.15 ± 0.062	1.21 ± 0.055
A0A0B4J2A4|P42765 (UniProt P42765)	1.01 ± 0.043	1.04 ± 0.052
A0A0A0MS49|Q8TEH3 (UniProt Q8TEH3)	1.03 ± 0.068	1.13 ± 0.076
A0A0D9SGJ6|J3KQV8 and related entries (UniProt O43426)	1.03 ± 0.015	1.03 ± 0.033
A0A0B4J1W0|F5GY88 and related entries (UniProt O75448)	1.04 ± 0.053	1.08 ± 0.073
A0A087X1Z3|Q9UL46 (UniProt Q9UL46)	0.875 ± 0.1	0.846 ± 0.14
A0A0A0MQU4|Q96I15 (UniProt Q96I15)	0.975 ± 0.021	1.03 ± 0.061
A0A087WYT3|Q15185 (UniProt Q15185)	0.933 ± 0.08	0.96 ± 0.067
A0A0C4DFM0|G3V4T6 and related entries (UniProt O43708)	0.977 ± 0.041	0.932 ± 0.035
A0A087WYP2|Q8IZQ5 (UniProt Q8IZQ5)	0.995 ± 0.059	1.04 ± 0.023
A0A0C4DG78|M0R3C6 and related entries (UniProt Q8TBC5)	0.886 ± 0.056	0.849 ± 0.046
A0A087WTJ2|Q8WWP7 (UniProt Q8WWP7)	1.06 ± 0.045	1.05 ± 0.03
A0A087X279|P09913 (UniProt P09913)	1.08 ± 0.099	1.05 ± 0.033
A0A0A0MS18|C9JYJ0 and related entries (UniProt O15315)	1.094 ± 0.0042	1.05 ± 0.12
A0A087WXS7|K7ERW9 and related entries (UniProt O43681)	1.05 ± 0.082	0.9666 ± 0.0085
A0A087WXZ7|K7EIX2 and related entries (UniProt Q6AI08)	1.02 ± 0.029	1.01 ± 0.066
A0A087X1L0|Q9NS73 and related entries (UniProt Q9NS73)	1.04 ± 0.11	1.01 ± 0.17

Target	NP40-soluble protein abundance (concentration: 0.1mM)	NP40-soluble protein abundance (concentration: 0.5mM)
A0A087WWW9|O95999 (UniProt O95999)	0.945 ± 0.054	0.954 ± 0.04
A0A075B7F8|A8CG34 and related entries (UniProt Q96HA1+A8CG34)	0.944 ± 0.093	0.91 ± 0.038
A0A0A0MT32|P38571 and related entries (UniProt P38571)	0.928 ± 0.054	0.909 ± 0.19
A0A087WX71|Q9H501 (UniProt Q9H501)	1.03 ± 0.034	1.08 ± 0.048
A0A087X0W9|Q8N6M0 (UniProt Q8N6M0)	0.974 ± 0.015	0.972 ± 0.054
A0A0A0MRI1|Q8IXQ4 (UniProt Q8IXQ4)	0.938 ± 0.022	0.9279 ± 0.0034
A0A0A0MTH3|Q13418 (UniProt Q13418)	1.01 ± 0.062	1.02 ± 0.04
A0A0A0MQS0|A8MW92 and related entries (UniProt A8MW92)	0.95 ± 0.037	1.02 ± 0.029
A0A087WYS9|Q15526 and related entries (UniProt Q15526)	1.01 ± 0.078	1.01 ± 0.07
A0A087WXN9|Q765P7 (UniProt Q765P7)	1.07 ± 0.098	1.01 ± 0.043
A0A0A6YYH1|H0YLI7 and related entries (UniProt Q7Z6K5+P59780+H0YLI7)	0.924 ± 0.065	0.939 ± 0.011
A0A0C4DGP0|E7EU35 and related entries (UniProt Q9UKF7)	0.986 ± 0.025	1.06 ± 0.02
A0A0A6YYC8|I3L1I5 (UniProt I3L1I5)	0.989 ± 0.051	0.96 ± 0.026
A0A087WV73|P46087 and related entries (UniProt P46087)	1.02 ± 0.005	1.1 ± 0.025
A0A087WWU1|Q96Q45 and related entries (UniProt Q96Q45)	1 ± 0.073	1.01 ± 0.016
A0A0A0MRA5|Q9BUJ2-2|Q9BUJ2-4|Q9BUJ2 (UniProt Q9BUJ2)	1.02 ± 0.026	1.05 ± 0.048
A0A0C4DGC9|Q8TDR2 (UniProt Q8TDR2)	1.07 ± 0.096	1.11 ± 0.071
A0A087X0M0|Q7Z5L2 and related entries (UniProt Q7Z5L2)	1.02 ± 0.074	0.978 ± 0.069
A0A087WYU1|Q9Y5X1 (UniProt Q9Y5X1)	0.975 ± 0.071	1.02 ± 0.03
A0A075B6T1|Q9C0C7 and related entries (UniProt Q9C0C7)	0.94 ± 0.12	0.87 ± 0.076
A0A0C4DG33|H7BZH3 and related entries (UniProt O43933)	1.07 ± 0.071	1.07 ± 0.076
A0A075B7B5|A2RUF3 and related entries (UniProt O75044)	1.05 ± 0.029	1.05 ± 0.038

Taken from above:
Under NP40-soluble protein abundance (concentration: 0.5mM), A0A075B6T1|Q9C0C7 and related entries (UniProt Q9C0C7) has 0.87 ± 0.076
Under NP40-soluble protein abundance (concentration: 0.1mM), A0A075B7F8|A8CG34 and related entries (UniProt Q96HA1+A8CG34) has 0.944 ± 0.093
